Earlier results as cited in patent publication US4499094A, “Derivatives of arene and hetero-arene carboxamides and their use as medicaments” (Pharmuka Laboratoires, priority 1982, dated 1985).

Test system: binding sites of (^3 H) diazepam in the brain
Settings: rank order; cited from earlier work

For `CN1C(=O)CN=C(c2ccccc2)c2cc(Cl)ccc21` [diazepam], the “classification by decreasing affinity, "cerebral" type” value is given as “clonazepan>diazepam>Ro-5-4864”.
